Values of other authors in patent publication US20110218515A1, “Methods for Treating Acute Myocardial Infarctions and Associated Disorders” (The Regents of the University of California, priority 2009, published 2011).
For at least one compound, name, drawing or mass did not settle the structure.

System: AMI
Conditions: patients; interfered with scar formation and healing, aneurysm and rupture of the ventricle wall in some patients; cited from earlier work

SMILES: C[C@H]1C[C@@H]2[C@H]([C@@H](O)C[C@@]3(C)[C@H]2CC[C@]3(O)C(=O)CO)[C@@]2(C)C=CC(=O)C=C12 [methyl-prednisolone]
- clinical application in AMI to minimize myocardial necrosis: not successful
